Our source for the log2 fold change values is the supplement of paper PMC10849652.

The chains behind the UniProt entries cited, without tags or fusion partners. Where a name states a change or a piece, a line headed by the entry shows the natural chain unless it says otherwise.
UniProt Q9H4B0: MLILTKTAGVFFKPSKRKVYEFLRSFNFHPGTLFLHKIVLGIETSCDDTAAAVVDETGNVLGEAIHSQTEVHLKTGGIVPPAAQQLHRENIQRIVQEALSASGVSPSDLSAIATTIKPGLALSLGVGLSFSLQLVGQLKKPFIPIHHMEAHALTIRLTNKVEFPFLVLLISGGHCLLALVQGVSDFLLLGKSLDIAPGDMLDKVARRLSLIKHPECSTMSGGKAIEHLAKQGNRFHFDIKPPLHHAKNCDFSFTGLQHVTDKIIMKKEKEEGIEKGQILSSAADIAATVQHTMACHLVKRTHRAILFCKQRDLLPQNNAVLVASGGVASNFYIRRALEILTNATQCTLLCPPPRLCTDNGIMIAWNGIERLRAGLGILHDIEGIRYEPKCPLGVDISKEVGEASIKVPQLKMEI
UniProt O75665: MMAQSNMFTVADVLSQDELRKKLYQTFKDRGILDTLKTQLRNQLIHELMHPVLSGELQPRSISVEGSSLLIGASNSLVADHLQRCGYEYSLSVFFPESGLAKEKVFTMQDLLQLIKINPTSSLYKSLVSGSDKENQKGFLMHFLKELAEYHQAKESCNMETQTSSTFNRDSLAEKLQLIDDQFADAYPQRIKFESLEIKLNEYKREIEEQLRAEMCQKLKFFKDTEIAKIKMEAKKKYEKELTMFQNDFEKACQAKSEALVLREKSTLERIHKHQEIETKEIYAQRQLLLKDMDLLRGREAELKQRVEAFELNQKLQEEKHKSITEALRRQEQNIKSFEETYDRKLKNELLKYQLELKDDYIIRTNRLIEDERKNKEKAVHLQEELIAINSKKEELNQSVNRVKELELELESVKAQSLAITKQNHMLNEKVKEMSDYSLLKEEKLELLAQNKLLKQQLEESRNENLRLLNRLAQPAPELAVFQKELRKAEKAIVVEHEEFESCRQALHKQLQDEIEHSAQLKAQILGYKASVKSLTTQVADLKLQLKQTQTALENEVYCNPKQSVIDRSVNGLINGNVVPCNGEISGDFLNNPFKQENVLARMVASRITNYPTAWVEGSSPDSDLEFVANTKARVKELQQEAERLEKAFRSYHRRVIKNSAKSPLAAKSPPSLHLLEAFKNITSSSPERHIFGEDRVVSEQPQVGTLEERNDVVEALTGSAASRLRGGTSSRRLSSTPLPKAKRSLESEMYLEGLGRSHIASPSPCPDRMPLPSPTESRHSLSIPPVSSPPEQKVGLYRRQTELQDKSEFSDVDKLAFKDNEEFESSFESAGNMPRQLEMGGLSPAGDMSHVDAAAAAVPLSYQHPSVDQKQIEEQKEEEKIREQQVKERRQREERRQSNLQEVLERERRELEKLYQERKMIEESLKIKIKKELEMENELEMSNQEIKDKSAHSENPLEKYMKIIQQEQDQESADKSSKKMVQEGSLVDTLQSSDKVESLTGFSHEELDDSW
UniProt Q8NFH5: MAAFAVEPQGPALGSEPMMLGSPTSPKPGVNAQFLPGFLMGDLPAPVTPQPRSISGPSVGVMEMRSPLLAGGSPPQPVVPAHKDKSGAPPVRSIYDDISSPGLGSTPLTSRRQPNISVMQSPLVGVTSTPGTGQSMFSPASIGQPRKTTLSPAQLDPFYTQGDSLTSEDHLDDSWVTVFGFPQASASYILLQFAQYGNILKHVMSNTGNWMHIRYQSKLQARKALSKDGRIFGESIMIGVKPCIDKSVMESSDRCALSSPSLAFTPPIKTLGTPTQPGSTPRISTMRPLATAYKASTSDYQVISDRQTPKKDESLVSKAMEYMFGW
UniProt Q9BXW6, whole entry, looked up: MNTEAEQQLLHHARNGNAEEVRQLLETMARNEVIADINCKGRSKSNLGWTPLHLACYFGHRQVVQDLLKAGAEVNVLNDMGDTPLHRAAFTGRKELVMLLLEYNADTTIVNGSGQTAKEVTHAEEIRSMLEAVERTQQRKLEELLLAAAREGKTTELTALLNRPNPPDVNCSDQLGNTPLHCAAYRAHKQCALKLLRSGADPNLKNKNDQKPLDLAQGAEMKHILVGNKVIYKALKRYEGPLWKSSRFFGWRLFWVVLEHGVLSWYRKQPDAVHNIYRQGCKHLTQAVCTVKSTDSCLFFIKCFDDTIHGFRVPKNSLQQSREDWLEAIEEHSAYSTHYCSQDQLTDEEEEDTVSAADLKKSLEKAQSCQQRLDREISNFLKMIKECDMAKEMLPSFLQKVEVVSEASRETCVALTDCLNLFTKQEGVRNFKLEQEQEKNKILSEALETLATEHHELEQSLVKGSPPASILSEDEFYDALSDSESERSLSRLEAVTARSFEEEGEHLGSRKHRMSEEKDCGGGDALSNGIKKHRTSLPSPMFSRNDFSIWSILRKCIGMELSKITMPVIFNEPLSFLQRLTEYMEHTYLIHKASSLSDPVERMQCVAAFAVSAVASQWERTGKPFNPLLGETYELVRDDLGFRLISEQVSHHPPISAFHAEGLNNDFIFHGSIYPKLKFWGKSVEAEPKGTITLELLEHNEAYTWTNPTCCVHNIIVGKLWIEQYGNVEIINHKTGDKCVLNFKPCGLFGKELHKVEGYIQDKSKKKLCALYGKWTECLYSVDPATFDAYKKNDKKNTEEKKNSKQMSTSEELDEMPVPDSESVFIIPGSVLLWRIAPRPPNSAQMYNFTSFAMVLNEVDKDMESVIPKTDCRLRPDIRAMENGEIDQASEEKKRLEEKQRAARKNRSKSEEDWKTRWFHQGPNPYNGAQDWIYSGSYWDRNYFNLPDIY
UniProt Q86VP3, whole entry, looked up: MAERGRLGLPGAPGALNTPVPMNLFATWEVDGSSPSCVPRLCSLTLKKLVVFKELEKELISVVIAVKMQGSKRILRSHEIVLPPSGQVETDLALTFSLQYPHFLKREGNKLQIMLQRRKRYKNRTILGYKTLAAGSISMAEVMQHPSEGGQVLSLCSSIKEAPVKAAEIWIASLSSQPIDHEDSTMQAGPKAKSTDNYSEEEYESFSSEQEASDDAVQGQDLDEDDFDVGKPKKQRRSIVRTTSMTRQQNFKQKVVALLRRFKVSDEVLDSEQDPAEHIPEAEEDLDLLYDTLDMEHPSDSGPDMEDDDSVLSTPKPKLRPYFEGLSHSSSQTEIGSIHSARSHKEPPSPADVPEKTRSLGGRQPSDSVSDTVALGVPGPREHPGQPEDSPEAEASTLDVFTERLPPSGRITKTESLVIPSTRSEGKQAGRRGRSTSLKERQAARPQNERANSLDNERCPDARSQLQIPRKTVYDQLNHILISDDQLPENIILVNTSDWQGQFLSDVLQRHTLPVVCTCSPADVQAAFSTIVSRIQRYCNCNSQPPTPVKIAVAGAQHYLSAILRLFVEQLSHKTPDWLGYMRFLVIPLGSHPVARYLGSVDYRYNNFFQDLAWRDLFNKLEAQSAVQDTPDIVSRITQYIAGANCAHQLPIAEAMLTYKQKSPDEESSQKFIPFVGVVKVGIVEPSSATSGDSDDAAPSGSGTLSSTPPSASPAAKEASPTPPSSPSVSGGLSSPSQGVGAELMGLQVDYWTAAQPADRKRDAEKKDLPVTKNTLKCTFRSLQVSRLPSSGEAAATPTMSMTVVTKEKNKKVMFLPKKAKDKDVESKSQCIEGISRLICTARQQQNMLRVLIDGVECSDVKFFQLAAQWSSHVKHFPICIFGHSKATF
UniProt O60829: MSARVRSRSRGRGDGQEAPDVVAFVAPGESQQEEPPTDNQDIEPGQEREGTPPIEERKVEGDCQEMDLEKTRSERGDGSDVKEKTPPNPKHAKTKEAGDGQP
UniProt Q86UD1: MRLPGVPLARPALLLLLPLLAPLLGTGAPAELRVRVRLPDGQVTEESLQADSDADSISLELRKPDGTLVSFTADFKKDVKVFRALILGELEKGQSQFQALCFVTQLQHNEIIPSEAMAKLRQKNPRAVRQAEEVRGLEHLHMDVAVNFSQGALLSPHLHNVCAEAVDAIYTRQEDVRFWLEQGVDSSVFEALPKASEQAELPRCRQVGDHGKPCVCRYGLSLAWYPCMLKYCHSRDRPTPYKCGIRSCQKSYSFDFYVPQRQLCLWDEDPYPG
UniProt O15527, whole entry, looked up: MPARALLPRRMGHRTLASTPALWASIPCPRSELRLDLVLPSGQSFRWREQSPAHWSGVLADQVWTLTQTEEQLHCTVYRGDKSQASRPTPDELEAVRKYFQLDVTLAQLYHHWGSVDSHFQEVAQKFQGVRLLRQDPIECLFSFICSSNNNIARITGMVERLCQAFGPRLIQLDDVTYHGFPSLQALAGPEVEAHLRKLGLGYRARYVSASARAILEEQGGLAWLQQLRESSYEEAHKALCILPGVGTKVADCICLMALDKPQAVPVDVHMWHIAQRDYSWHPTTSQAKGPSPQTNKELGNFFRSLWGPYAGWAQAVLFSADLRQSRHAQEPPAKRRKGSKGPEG
UniProt P47900: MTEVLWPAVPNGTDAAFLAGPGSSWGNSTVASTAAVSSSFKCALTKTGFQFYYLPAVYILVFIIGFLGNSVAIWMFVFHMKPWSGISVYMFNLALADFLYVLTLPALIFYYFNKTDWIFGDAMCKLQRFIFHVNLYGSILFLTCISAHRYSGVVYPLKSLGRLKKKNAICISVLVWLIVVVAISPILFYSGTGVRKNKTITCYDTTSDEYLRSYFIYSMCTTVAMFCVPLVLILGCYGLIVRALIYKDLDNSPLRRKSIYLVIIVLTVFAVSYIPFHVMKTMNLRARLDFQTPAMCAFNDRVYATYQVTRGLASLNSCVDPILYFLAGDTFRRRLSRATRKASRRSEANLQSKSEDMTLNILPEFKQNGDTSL
UniProt Q96D31, whole entry, looked up: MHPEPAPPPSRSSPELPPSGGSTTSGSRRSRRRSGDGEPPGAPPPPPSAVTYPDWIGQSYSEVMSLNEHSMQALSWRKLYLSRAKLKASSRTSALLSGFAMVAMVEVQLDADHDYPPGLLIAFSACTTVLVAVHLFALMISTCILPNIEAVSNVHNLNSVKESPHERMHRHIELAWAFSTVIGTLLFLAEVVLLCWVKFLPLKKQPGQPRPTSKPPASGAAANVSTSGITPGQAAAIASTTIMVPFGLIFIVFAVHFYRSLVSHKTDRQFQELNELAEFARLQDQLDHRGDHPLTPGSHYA
UniProt Q9Y6K5: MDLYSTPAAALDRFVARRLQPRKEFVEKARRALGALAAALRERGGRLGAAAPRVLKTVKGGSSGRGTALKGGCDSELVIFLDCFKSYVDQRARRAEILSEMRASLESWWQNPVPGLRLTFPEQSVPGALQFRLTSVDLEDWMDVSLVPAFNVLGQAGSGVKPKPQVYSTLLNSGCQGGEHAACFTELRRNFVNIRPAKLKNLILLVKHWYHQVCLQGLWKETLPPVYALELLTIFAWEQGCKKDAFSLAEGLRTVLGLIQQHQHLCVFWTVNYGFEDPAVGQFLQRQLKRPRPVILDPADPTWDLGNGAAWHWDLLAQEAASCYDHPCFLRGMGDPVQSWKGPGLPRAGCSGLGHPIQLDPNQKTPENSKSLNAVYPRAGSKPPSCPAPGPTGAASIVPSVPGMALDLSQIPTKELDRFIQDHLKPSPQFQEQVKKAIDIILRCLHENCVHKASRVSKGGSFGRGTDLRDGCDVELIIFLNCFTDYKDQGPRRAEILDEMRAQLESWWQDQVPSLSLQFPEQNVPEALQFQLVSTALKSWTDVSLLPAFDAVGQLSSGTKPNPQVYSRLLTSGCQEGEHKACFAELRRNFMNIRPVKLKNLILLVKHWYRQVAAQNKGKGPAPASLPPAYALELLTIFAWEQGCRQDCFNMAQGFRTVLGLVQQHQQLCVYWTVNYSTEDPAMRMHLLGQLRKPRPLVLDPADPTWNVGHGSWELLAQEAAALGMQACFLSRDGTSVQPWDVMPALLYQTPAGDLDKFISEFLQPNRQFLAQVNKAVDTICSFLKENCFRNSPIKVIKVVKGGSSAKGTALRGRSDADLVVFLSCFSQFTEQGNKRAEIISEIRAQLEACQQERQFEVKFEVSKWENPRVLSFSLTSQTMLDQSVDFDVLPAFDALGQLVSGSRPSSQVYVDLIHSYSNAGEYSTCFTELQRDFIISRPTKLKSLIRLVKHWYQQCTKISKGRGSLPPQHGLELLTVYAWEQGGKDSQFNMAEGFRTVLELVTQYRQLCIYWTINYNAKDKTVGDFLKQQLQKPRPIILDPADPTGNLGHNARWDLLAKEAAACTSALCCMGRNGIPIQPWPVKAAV
UniProt Q5BKU9: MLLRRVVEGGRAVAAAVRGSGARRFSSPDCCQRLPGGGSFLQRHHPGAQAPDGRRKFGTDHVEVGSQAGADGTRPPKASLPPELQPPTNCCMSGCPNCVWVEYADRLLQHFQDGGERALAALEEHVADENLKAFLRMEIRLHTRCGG
UniProt Q8N138: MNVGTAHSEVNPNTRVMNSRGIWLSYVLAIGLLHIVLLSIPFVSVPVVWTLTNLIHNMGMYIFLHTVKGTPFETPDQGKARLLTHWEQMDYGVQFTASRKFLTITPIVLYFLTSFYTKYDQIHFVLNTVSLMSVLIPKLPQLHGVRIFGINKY
UniProt Q9H6K4: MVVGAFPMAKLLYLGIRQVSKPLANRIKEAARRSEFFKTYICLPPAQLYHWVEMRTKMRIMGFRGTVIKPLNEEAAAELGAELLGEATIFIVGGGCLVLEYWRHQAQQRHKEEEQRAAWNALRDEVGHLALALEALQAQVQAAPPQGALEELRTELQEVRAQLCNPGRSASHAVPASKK

Some of the results follow.

Compound in one experiment: NCC(=O)Nc1ccc(-n2nc(C(F)(F)F)cc2-c2ccc3c(ccc4ccccc43)c2)cc1
Kind of experiment: log2 fold change, soluble protein after heating vs DMSO (PISA); higher = thermal stabilisation; K562 lysate, 10 uM; active = over 0.2 and 3.5 SD of the protein, either way, in both replicates (recomputed). In short, it runs like this: (§1)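 Values give the log-two fold change in thermal stability against solvent controls, from duplicates. Crude K562 extract at 1 mg/mL protein, made by dounce homogenisation in PBS pH 7.4 with 1 mM MgCl2, was treated with 10 μM compound for 30 min. After 3 min heating across 48°C-58°C, aliquots were pooled, adjusted to 0.5% NP-40 at 4°C and centrifuged at 21,000xg for 90 min. The supernatant was measured by TMTpro 16plex LC-MS/MS with channel sums equalised.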
For the target PAPSS2 isoform 2 (UniProt O95340), the log2 fold change is inactive: 0.106.
Regarding OCIAD1 (UniProt D6RDK6), the log2 fold change was inactive: 0.063.
For the target OSGEPL1 (UniProt Q9H4B0), the log2 fold change was inactive: 0.104.
For OFD1 (UniProt O75665), the log2 fold change is inactive: 0.072.
For NUP35 (UniProt Q8NFH5), the log2 fold change was inactive: -0.137.

Compound in a further experiment: O=C(CCCCCCC(=O)Nc1ccccc1)NO [vorinostat]
The description is as above. In short, it runs like this: as §1
PABPC1 (UniProt H0YAR2): the log2 fold change was inactive: 0.013.
Regarding OSBPL1A (UniProt Q9BXW6), the log2 fold change is inactive: 0.128.
PARD3B (UniProt Q8TEW8): the log2 fold change is active: -0.585.
For the target OSBPL9 (UniProt E9PLH0), the log2 fold change was inactive: -0.277.
On the same count and under the same terms, the result for NUP214 isoform 4 (UniProt P35658) reads inactive: -0.333; that for PAQR7 (UniProt Q86WK9), inactive: -0.071.
Still for that read-out and setting: the result for PACS2 isoform 2 (UniProt Q86VP3) reads inactive: -0.168; that for PAGE4 (UniProt O60829), active: -0.425; that for OAF (UniProt Q86UD1), inactive: 0.243.
Still for that read-out and setting: the result for NXF2 (UniProt Q9GZY0) reads inactive: -0.359.
Regarding OGG1 isoform 4 (UniProt O15527), the log2 fold change was inactive: 0.178.
The same measure, in the same setting: the result for PAQR4 (UniProt Q8N4S7) reads inactive: 0.077; that for OBSCN isoform 6 (UniProt Q5VST9), inactive: -0.063.
Still for that read-out and setting: the result for PALM isoform 2 (UniProt O75781) reads inactive: 0.049; that for NUP214, A0A494C1F2, inactive: -0.152; that for P2RY1 (UniProt P47900), inactive: 0.04.
The same measure, in the same setting: the result for ORAI1 (UniProt Q96D31) reads inactive: 0.021; that for OS9 isoform 7 (UniProt Q13438), inactive: 0.198.
With OAS3 (UniProt Q9Y6K5), the log2 fold change was inactive: -0.396.

Compound in the next experiment: O=C(O)c1ccc2c(c1)nc(Nc1cccc(Cl)c1)c1ccncc12 [silmitasertib]
The description is as above. The method in brief:
as §1
Consider PABPC1 (UniProt H0YAR2), for which the log2 fold change was inactive: 0.072.
On the same count and under the same terms, the result for OSBPL1A (UniProt Q9BXW6) reads inactive: -0.19.
For PARD3B (UniProt Q8TEW8), the log2 fold change was inactive: -0.209.
Regarding OSBPL9 (UniProt E9PLH0), the log2 fold change is inactive: -0.106.
The same measure, in the same setting: as for NUP214 isoform 4 (UniProt P35658), the figure is inactive: 0.073; as for PAQR7 (UniProt Q86WK9), inactive: 0.194.
Still for that read-out and setting: the result for PACS2 isoform 2 (UniProt Q86VP3) reads inactive: 0.063; that for PAGE4 (UniProt O60829), inactive: 0.06.
As for OAF (UniProt Q86UD1), the log2 fold change is inactive: 0.022.
Consider NXF2 (UniProt Q9GZY0), for which the log2 fold change is inactive: -0.001.
As for OGG1 isoform 4 (UniProt O15527), the log2 fold change is inactive: -0.035.
Still for that read-out and setting: the result for PAQR4 (UniProt Q8N4S7) reads inactive: 0.074.
On the same count and under the same terms, the result for OBSCN isoform 6 (UniProt Q5VST9) reads inactive: 0.098; that for PALM isoform 2 (UniProt O75781), inactive: -0.13; that for NUP214, A0A494C1F2, inactive: -0.03.
Turning to P2RY1 (UniProt P47900), the log2 fold change is inactive: 0.13.
As to ORAI1 (UniProt Q96D31), the log2 fold change is inactive: -0.028.
With OS9 isoform 7 (UniProt Q13438), the log2 fold change is inactive: -0.02.
In the case of OAS3 (UniProt Q9Y6K5), the log2 fold change is inactive: 0.087.

Compound in another experiment: O=C1NC(=O)C(c2cnc3ccccn23)=C1c1cn2c3c(cc(F)cc13)CN(C(=O)N1CCCCC1)CC2
The experiment is described as above. In short, it runs like this: as §1
Consider PABPN1 (UniProt Q86U42), for which the log2 fold change was inactive: 0.209.
Same read-out and setting: as for PABPC1 (UniProt H0YAR2), the figure is inactive: 0.099; as for OSBPL1A (UniProt Q9BXW6), inactive: -0.14; as for OXLD1 (UniProt Q5BKU9), inactive: 0.202.
As to PAN3 (UniProt Q58A45), the log2 fold change was inactive: 0.073.
Turning to PAOX (UniProt Q6QHF9), the log2 fold change is inactive: 0.085.
ORMDL3 (UniProt Q8N138): the log2 fold change was inactive: 0.192.
On the same count and under the same terms, as for PACS2 isoform 2 (UniProt Q86VP3), the figure is inactive: -0.071.
Same read-out and setting: as for PAGE4 (UniProt O60829), the figure is inactive: -0.074; as for OSGEPL1 (UniProt Q9H4B0), inactive: 0.068; as for ORAI1 (UniProt Q96D31), inactive: 0.018.
Consider NUP35 (UniProt Q8NFH5), for which the log2 fold change is inactive: 0.012.
Turning to OPA3 isoform 2 (UniProt Q9H6K4), the log2 fold change was inactive: 0.191.
In the case of PACRGL (UniProt Q8N7B6), the log2 fold change is inactive: -0.051.
As for OAS3 (UniProt Q9Y6K5), the log2 fold change was inactive: -0.007.

Compound in another experiment: c1cn2cc(-c3ccc4cn[nH]c4c3)nc(Nc3ccc(N4CCOCC4)cc3)c2n1 [entospletinib]
The description is as above. In short, it runs like this:
as §1
As to PABPN1 (UniProt Q86U42), the log2 fold change is inactive: -0.012.
On the same count and under the same terms, as for PAPSS2 isoform 2 (UniProt O95340), the figure is inactive: -0.05; as for OCIAD1 (UniProt D6RDK6), inactive: -0.038; as for PACS2 isoform 2 (UniProt Q86VP3), inactive: -0.035.
The same measure, in the same setting: as for PAGE4 (UniProt O60829), the figure is inactive: -0.054; as for OSGEPL1 (UniProt Q9H4B0), inactive: 0.068.
As to OGG1 isoform 4 (UniProt O15527), the log2 fold change was inactive: -0.144.
Still for that read-out and setting: as for ORC1 (UniProt Q13415), the figure is inactive: -0.047; as for OPHN1 (UniProt O60890), inactive: 0.036.
For the target OFD1 (UniProt O75665), the log2 fold change was inactive: -0.018.
Take P2RY1 (UniProt P47900): the log2 fold change is inactive: -0.064.
On the same count and under the same terms, the result for ORAI1 (UniProt Q96D31) reads inactive: -0.034.
In the case of NUP35 (UniProt Q8NFH5), the log2 fold change was inactive: 0.069.
On the same count and under the same terms, as for PACRGL (UniProt Q8N7B6), the figure is inactive: 0.063; as for OAS3 (UniProt Q9Y6K5), inactive: -0.007.
